## Cleaved PARP in drug-treated melanoma cells

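Human melanoma cell lines in 1,536-well plates were treated with two drugs together for 72 h, then fixed, stained and imaged. Each value is the cleaved-PARP-positive fraction of nuclei relative to DMSO-treated wells, in %, so that 100 equals the control and higher values mean more apoptosis. Concentrations were fixed for each drug; these are the higher of two levels. No replicate spread is given; individual values may be noisy. Basal and induced levels differ widely between cell lines.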
An unselected part of the screen is shown.
An entry leaves out what has no value listed here.

Drugs:
VX-702 (2 µM): NC(=O)c1ccc(N(C(N)=O)c2c(F)cccc2F)nc1-c1ccc(F)cc1F
A-769662 (10 µM): N#Cc1c(O)c2c(-c3ccc(-c4ccccc4O)cc3)csc2[nH]c1=O
CHIR-265 (0.4 µM): Cn1c(Nc2ccc(C(F)(F)F)cc2)nc2cc(Oc3ccnc(-c4ncc(C(F)(F)F)[nH]4)c3)ccc21
PLX4720 (0.4 µM): CCCS(=O)(=O)Nc1ccc(F)c(C(=O)c2c[nH]c3ncc(Cl)cc23)c1F
sorafenib (2 µM): CNC(=O)c1cc(Oc2ccc(NC(=O)Nc3ccc(Cl)c(C(F)(F)F)c3)cc2)ccn1
PD173074 (0.5 µM): CCN(CC)CCCCNc1ncc2cc(-c3cc(OC)cc(OC)c3)c(NC(=O)NC(C)(C)C)nc2n1
enzastaurin (4 µM): Cn1cc(C2=C(c3cn(C4CCN(Cc5ccccn5)CC4)c4ccccc34)C(=O)NC2=O)c2ccccc21
SNS-032 (0.05 µM): CC(C)(C)c1cnc(CSc2cnc(NC(=O)C3CCNCC3)s2)o1
bexarotene (10 µM): C=C(c1ccc(C(=O)O)cc1)c1cc2c(cc1C)C(C)(C)CCC2(C)C
GSK650394 (0.8 µM): O=C(O)c1ccc(-c2c[nH]c3ncc(-c4ccccc4)cc23)cc1C1CCCC1
docetaxel (0.0005 µM): CC(=O)O[C@@]12CO[C@@H]1C[C@H](O)[C@@]1(C)C(=O)[C@H](O)C3=C(C)[C@@H](OC(=O)[C@H](O)[C@@H](NC(=O)OC(C)(C)C)c4ccccc4)C[C@@](O)([C@@H](OC(=O)c4ccccc4)[C@H]21)C3(C)C
MK-2206 (2 µM): NC1(c2ccc(-c3nc4ccn5c(=O)[nH]nc5c4cc3-c3ccccc3)cc2)CCC1
midostaurin (0.4 µM): CO[C@@H]1[C@H](N(C)C(=O)c2ccccc2)C[C@H]2O[C@]1(C)n1c3ccccc3c3c4c(c5c6ccccc6n2c5c31)C(=O)NC4
GW441756 (2 µM): Cn1cc(/C=C2\C(=O)Nc3cccnc32)c2ccccc21
decitabine (0.5 µM): Nc1ncn([C@H]2C[C@H](O)[C@@H](CO)O2)c(=O)n1
pazopanib (2 µM): Cc1ccc(Nc2nccc(N(C)c3ccc4c(C)n(C)nc4c3)n2)cc1S(N)(=O)=O

Pair: GSK650394 and decitabine
SK-MEL-5: 97.9
IPC-298: 116
COLO 800: 191
UACC-257: 156
WM1745: 115
LOX IMVI: 130
G-361: 226
A101D: 299

Pair: GW441756 and MK-2206
SK-MEL-5: 107
IPC-298: 106
COLO 800: 239
UACC-257: 38.9
LOX IMVI: 145
G-361: 56.1
A101D: 97.3

Pair: enzastaurin and decitabine
SK-MEL-5: 110
IPC-298: 245
COLO 800: 121
UACC-257: 215
WM1745: 165
LOX IMVI: 525
G-361: 155
A101D: 229

Pair: pazopanib and VX-702
SK-MEL-5: 85.8
IPC-298: 235
COLO 800: 139
UACC-257: 26.9
WM1745: 92.1
LOX IMVI: 89.9
G-361: 104
A101D: 27.8

Pair: MK-2206 and A-769662
SK-MEL-5: 90.7
IPC-298: 91.1
COLO 800: 243
UACC-257: 30.2
LOX IMVI: 84.0
G-361: 60.4
A101D: 133

Pair: pazopanib and enzastaurin
SK-MEL-5: 137
IPC-298: 69.8
COLO 800: 92.0
UACC-257: 85.8
WM1745: 179
LOX IMVI: 206
G-361: 114
A101D: 156

Pair: bexarotene and pazopanib
SK-MEL-5: 139
IPC-298: 115
COLO 800: 46.0
UACC-257: 62.7
WM1745: 105
LOX IMVI: 88.6
G-361: 72.8
A101D: 96.8

Pair: SNS-032 and pazopanib
SK-MEL-5: 35.3
IPC-298: 51.2
COLO 800: 246
UACC-257: 81.8
WM1745: 276
LOX IMVI: 98.5
G-361: 93.0
A101D: 210

Pair: GSK650394 and midostaurin
SK-MEL-5: 46.9
IPC-298: 129
COLO 800: 359
UACC-257: 51.7
WM1745: 273
LOX IMVI: 51.5
G-361: 233
A101D: 330

Pair: MK-2206 and sorafenib
SK-MEL-5: 229
IPC-298: 68.7
COLO 800: 82.7
UACC-257: 50.1
WM1745: 107
LOX IMVI: 96.7
G-361: 139
A101D: 101

Pair: A-769662 and PLX4720
SK-MEL-5: 90.3
IPC-298: 92.7
COLO 800: 86.8
UACC-257: 56.4
LOX IMVI: 47.5
G-361: 182
A101D: 46.5

Pair: MK-2206 and decitabine
SK-MEL-5: 266
IPC-298: 160
COLO 800: 216
UACC-257: 24.8
WM1745: 109
LOX IMVI: 167
G-361: 108
A101D: 357

Pair: GW441756 and docetaxel
SK-MEL-5: 272
IPC-298: 833
COLO 800: 616
UACC-257: 99.1
LOX IMVI: 96.4
G-361: 279
A101D: 86.7

Pair: CHIR-265 and A-769662
SK-MEL-5: 965
IPC-298: 89.3
COLO 800: 58.8
UACC-257: 49.8
WM1745: 162
LOX IMVI: 76.9
G-361: 773
A101D: 50.1

Pair: pazopanib and CHIR-265
SK-MEL-5: 1340
IPC-298: 478
COLO 800: 113
UACC-257: 41.9
WM1745: 165
LOX IMVI: 71.9
G-361: 544
A101D: 116

Pair: enzastaurin and CHIR-265
SK-MEL-5: 1190
IPC-298: 348
COLO 800: 43.6
UACC-257: 34.8
WM1745: 582
LOX IMVI: 58.2
G-361: 355
A101D: 227

Pair: docetaxel and decitabine
SK-MEL-5: 2160
IPC-298: 260
COLO 800: 206
UACC-257: 40.2
WM1745: 213
LOX IMVI: 85.4
G-361: 865
A101D: 123

Pair: SNS-032 and CHIR-265
SK-MEL-5: 2180
IPC-298: 303
COLO 800: 210
UACC-257: 95.5
WM1745: 156
LOX IMVI: 234
G-361: 1060
A101D: 233

Pair: PLX4720 and GW441756
SK-MEL-5: 176
IPC-298: 41.0
COLO 800: 79.2
UACC-257: 69.5
LOX IMVI: 98.6
G-361: 351
A101D: 108

Pair: PLX4720 and enzastaurin
SK-MEL-5: 120
IPC-298: 135
COLO 800: 109
UACC-257: 42.5
WM1745: 98.5
LOX IMVI: 80.4
G-361: 193
A101D: 92.0

Pair: decitabine and PD173074
SK-MEL-5: 73.5
IPC-298: 260
COLO 800: 102
UACC-257: 25.1
LOX IMVI: 282
G-361: 114
A101D: 154

Pair: PD173074 and sorafenib
SK-MEL-5: 55.5
IPC-298: 41.5
COLO 800: 64.3
UACC-257: 29.4
LOX IMVI: 162
G-361: 77.6
A101D: 60.7

Pair: A-769662 and GSK650394
SK-MEL-5: 244
IPC-298: 66.2
COLO 800: 190
UACC-257: 32.4
WM1745: 107
LOX IMVI: 65.0
G-361: 88.7
A101D: 201

Pair: docetaxel and VX-702
SK-MEL-5: 808
IPC-298: 185
COLO 800: 394
UACC-257: 144
WM1745: 237
LOX IMVI: 172
G-361: 1650
A101D: 165

Pair: decitabine and CHIR-265
SK-MEL-5: 1430
IPC-298: 472
COLO 800: 54.2
UACC-257: 84.7
WM1745: 119
LOX IMVI: 109
G-361: 920
A101D: 119

Pair: midostaurin and SNS-032
SK-MEL-5: 361
IPC-298: 120
COLO 800: 209
UACC-257: 227
WM1745: 218
LOX IMVI: 181
G-361: 357
A101D: 201

Pair: bexarotene and GSK650394
SK-MEL-5: 78.9
IPC-298: 71.5
COLO 800: 150
UACC-257: 61.8
WM1745: 102
LOX IMVI: 134
G-361: 203
A101D: 139

Pair: enzastaurin and midostaurin
SK-MEL-5: 173
IPC-298: 182
COLO 800: 470
UACC-257: 64.6
WM1745: 574
LOX IMVI: 109
G-361: 442
A101D: 76.6

Pair: GSK650394 and PD173074
SK-MEL-5: 303
IPC-298: 61.2
COLO 800: 184
UACC-257: 58.4
WM1745: 118
LOX IMVI: 181
G-361: 152
A101D: 121

Pair: GSK650394 and VX-702
SK-MEL-5: 176
IPC-298: 41.4
COLO 800: 65.8
UACC-257: 152
WM1745: 74.2
LOX IMVI: 73.9
G-361: 82.4
A101D: 161

Pair: docetaxel and bexarotene
SK-MEL-5: 470
IPC-298: 337
COLO 800: 167
UACC-257: 110
WM1745: 343
LOX IMVI: 96.0
G-361: 396
A101D: 239

Pair: midostaurin and GW441756
SK-MEL-5: 311
IPC-298: 49.9
COLO 800: 162
UACC-257: 54.4
WM1745: 289
LOX IMVI: 346
G-361: 103
A101D: 134

Pair: sorafenib and VX-702
SK-MEL-5: 116
IPC-298: 95.4
COLO 800: 76.6
UACC-257: 64.2
WM1745: 106
LOX IMVI: 188
G-361: 183
A101D: 146

Pair: decitabine and sorafenib
SK-MEL-5: 154
IPC-298: 50.5
COLO 800: 167
UACC-257: 66.3
WM1745: 158
LOX IMVI: 109
G-361: 193
A101D: 76.9

The last 4 entries again:

{"pair": "docetaxel and bexarotene", "SK-MEL-5": 470, "IPC-298": 337, "COLO 800": 167, "UACC-257": 110, "WM1745": 343, "LOX IMVI": 96.0, "G-361": 396, "A101D": 239}
{"pair": "midostaurin and GW441756", "SK-MEL-5": 311, "IPC-298": 49.9, "COLO 800": 162, "UACC-257": 54.4, "WM1745": 289, "LOX IMVI": 346, "G-361": 103, "A101D": 134}
{"pair": "sorafenib and VX-702", "SK-MEL-5": 116, "IPC-298": 95.4, "COLO 800": 76.6, "UACC-257": 64.2, "WM1745": 106, "LOX IMVI": 188, "G-361": 183, "A101D": 146}
{"pair": "decitabine and sorafenib", "SK-MEL-5": 154, "IPC-298": 50.5, "COLO 800": 167, "UACC-257": 66.3, "WM1745": 158, "LOX IMVI": 109, "G-361": 193, "A101D": 76.9}

Data from the primary screen of doi:10.1371/journal.pone.0140310, rounded.